# PubChem BioAssay AID1259308 – NCATS | 2017
# Test: 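Genes whose loss raises luciferase production in HEK293 cells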 (primary screen)
# Cells: human HEK293 embryonic kidney cells stably expressing firefly luciferase (HEK-CMV-Luc2-Hygro)
# Reagents: single siRNA against human genes, 0.8 pmol siRNA per well
# Time to read-out: 72 h
# Measurement: 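Reporter luminescence and viable-cell signal on separate replicate plates, given as percent of non-targeting control and median/MAD z-scores, plus per-cell luciferase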
# Scale: total luciferase, z-score and total luciferase, % of control: higher = more reporter protein produced; luciferase per cell, z-score: higher = more reporter output per viable cell; viable cells, % of control: higher = more viable cells
# Hit rule: 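An siRNA counts as active if its total luciferase robust z-score exceeds 3; genes with two or more such siRNAs out of three were retested with fresh siRNAs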
# Meaning of the calls: active = raised luciferase; inactive = no rise
# The whole screen tested about 59,000 reagents; below is a random part of them. In the full data, about 1,510 (2.6%) were called active. 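Calls use total luciferase alone and ignore viability, so some active siRNAs may act by altering cell number.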 Reagents against one gene are numbered here.
The first 3 records, ahead of the listing:
target,reagent no.,"total luciferase, z-score","total luciferase, % of control","luciferase per cell, z-score","viable cells, % of control",activity call
KRT27,1,0.109,84,1.01,71.9,inactive
KRT27,2,0.371,89.3,0.499,87.5,inactive
KRT27,3,0.0868,83.6,0.271,87,inactive

The list itself, from the first entry:
target,reagent no.,"total luciferase, z-score","total luciferase, % of control","luciferase per cell, z-score","viable cells, % of control",activity call
KRT27,1,0.109,84,1.01,71.9,inactive
KRT27,2,0.371,89.3,0.499,87.5,inactive
KRT27,3,0.0868,83.6,0.271,87,inactive
ACO1,1,1.11,104,0.0946,113,inactive
ACO1,2,-0.607,69.8,-0.507,89.2,inactive
ACO1,3,-0.877,64.4,-1.09,95.9,inactive
C16orf82,1,-0.878,64.4,-0.461,81.3,inactive
C16orf82,2,0.295,87.8,1.17,72,inactive
C16orf82,3,0.271,87.3,-0.39,108,inactive
HNRNPA1P8,1,1.55,113,1.66,81.5,inactive
HNRNPA1P8,2,1.18,105,1.26,84.5,inactive
HNRNPA1P8,3,-0.386,74.2,-0.884,105,inactive
DUS4L,1,1.55,113,1.48,85.5,inactive
DUS4L,2,0.898,99.7,0.228,105,inactive
DUS4L,3,-0.452,72.9,-0.701,98,inactive
STRA8,1,1.59,114,1.41,87.4,inactive
STRA8,2,1.08,103,0.822,93,inactive
STRA8,3,0.327,88.4,0.565,85.1,inactive
DENR,1,0.344,88.7,0.37,89.9,inactive
DENR,2,0.558,93,0.568,89.5,inactive
DENR,3,1.16,105,1.56,77.7,inactive
KIAA1671,1,4.25,166,3.35,76.9,active
KIAA1671,2,0.33,88.5,0.0321,98,inactive
KIAA1671,3,0.00791,82,-0.567,106,inactive
KIAA1671,4,-2.13,39.5,-1.93,73.5,inactive
KIAA1671,5,0.591,93.6,0.451,92.9,inactive
KIAA1671,6,-0.247,77,-0.02,86.5,inactive
FBXL5,1,0.561,93,0.275,96.7,inactive
FBXL5,2,0.455,90.9,0.525,88.5,inactive
FBXL5,3,-0.311,75.7,0.358,77,inactive
HMGN2P20,1,0.637,94.6,0.0372,105,inactive
HMGN2P20,2,0.0588,83.1,0.514,81.1,inactive
HMGN2P20,3,0.389,89.6,0.712,83,inactive
BYSL,1,-0.378,74.4,4.58,24.9,inactive
BYSL,2,2.66,135,2.97,69,inactive
BYSL,3,0.867,99.1,0.604,94.5,inactive
LOC100289470,1,-0.831,65.4,-0.66,86.9,inactive
LOC100289470,2,-0.446,73,0.447,72.5,inactive
LOC100289470,3,-1.37,54.7,-1.06,81,inactive
